Source: PMC8640094, “Diaportones A–C: Three New Metabolites From Endophytic Fungus Diaporthe foeniculina BZM-15” (Frontiers in Chemistry, 2021)

Tested on: SF-268 (CNS cancer)
Test: MTT cytotoxicity assay, SF-268 cells
Type: cell-based, human
Details: IC50 for LX-2 cell line/IC50 for SF286 cell line
Description: The cytotoxicity of all compounds against three human tumor cell lines, SF-268 (CNS cancer), MCF-7 (breast cancer), and HepG2 (hepatoma cancer), and normal cell line LX-2 was tested using the MTT assay. Adriamycin was used as a positive control. All cells were seeded into 96-well plates at 5 × 10^4 cells/ml and incubated at 37°C under a 5% CO2 atmosphere for 24 h. Then, the tested compounds were added. After 72 h, MTT solution was added into each well, which was further incubated. The cell-free supernatant was removed and formazan crystals were subsequently dissolved in DMSO. Optical density (OD) was recorded at 490 nm on a microplate reader to calculate the IC50 values.

## CC(C)[C@@H](C)C=C[C@@H](C)[C@H]1CC[C@@]2(O)C3=CC(=O)C4=CC(=O)CC[C@]4(C)[C@H]3CC[C@]12C [compound 8, 14α-hydroxyergosta-4,7,22-triene-3,6-dione]
  SI Values (safety index): >5
